# Laboratory results reported in patent US12629415B2, “Vaccine adjuvants” (THE PROVOST, FELLOWS, FOUNDATION SCHOLARS, AND THE OTHER …, priority 2018, dated 2026).
# Some results were stated once for a whole list of compounds, not compound by compound.
# Test system: IRF7
# Test: TransAM IRF7 activation assay on nuclear extracts
# Format: cell-based, human
# Settings: adult PBMCs
# Procedure: IRF3/7 activation—Active Motif TransAM™ IRF3 and IRF7 assays were carried out on nuclear extracts from PBMCs or CBMCs, harvested as per manufacturer's (Active Motif) instructions, to detect and quantify IRF3 or IRF7 activation.
substance,measurement,value
polyinosinic-polycytidylic acid [Poly(I:C)],percentage increase in activation over basal IRF7,150%-250%
